For at least one compound, name, drawing or mass did not settle the structure.
Assays:
zebrafish larvae = assay: Phenotypic scoring of edema and survival in zebrafish larvae at 72 hpf; format: in vivo; settings: 3 μM, 2 to 72 hpf
From the text: (§1) PTBA was synthesized as described below. Hydroxyurea and aphidicolin were obtained from Sigma-Aldrich.
Wild type: no visible edema or developmental delay.

[1] = tested on: renal progenitor cells (lhx1a expression); assay: In situ hybridization for lhx1a expression in 10-somite embryos (renal progenitor cell expansion); format: in vivo; settings: 200 nM
Description: as §1
In situ hybridization and immunocytochemistry: In situ hybridization was performed as previously described with some modifications. 142 Hybridization temperature was 65° C. Embryos were blocked in 2% blocking reagent (Roche) with 5% sheep serum in MAB (100 mM maleic acid and 150 mM NaCl [pH 7.5]). Whole-mount immunocytochemistry with 1:25 mouse anti-α6F antibody (Developmental Studies Hybridoma Bank) and 1:100 Cy3 secondary antibody (Jackson ImmunoResearch) was performed as described previously. 108 Embryos were embedded in JB-4 for sectioning per the manufacturer's instructions (Polysciences), sectioned at 5 μm, and mounted with Cytoseal 60 (Richard-Allan Scientific).
The remaining PTBA analogs were synthesized. […]
Testing of the compounds is on-going, but for those tested, Table 3 provides first pass EC50s based upon colormetric in situ hybridizations for the Lhx1a mRNA expression levels. After the procedure is run, in situ hybridization is done for the lhx1 mRNA expression and the number of embryos that show an expanded kidney field is manually counted to establish the percent of embryos showing expansion. Then the EC50 is determined by plotting the percent expansion in Excel, graphing the results and using the trendline function to determine the 50 percent point. […]

CCC(=O)CCCCC[C@@H]1NC(=O)[C@H]2CCCCN2C(=O)[C@H]([C@@H](C)CC)NC(=O)[C@H](Cc2cn(OC)c3ccccc23)NC1=O [apicidin, reference compound]
larval phenotype in phenotypic screen of analogs (zebrafish larvae): generated edemic and/or lethal phenotypes
embryos with expanded lhx1a expression (% expansion) [1]: ineffective

— patent US10233201B2, “Class of HDAC inhibitors expands the renal progenitor cells population and improves the rate of recovery from acute kidney injury” (University of Pittsburgh—Of the Commonwealth System of …, priority 2012, dated 2019)
